Consider 16 compounds from PubChem BioAssay AID2685 (National Center for Advancing Translational Sciences (NCATS), 2010).

The other results are listed elsewhere or left out. The main result of the screen is listed elsewhere. These columns were measured beside it and carry no call. Most of these compounds were active or inconclusive in the main read-out, so they are no random draw. Words in brackets tell the shape of the fitted curve; partial curves, single points and poor fits give uncertain potencies.

The experiment can be described thus: qHTS Assay for Lipid Storage Modulators in Drosophila S3 Cells.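 For cell number change: cells counted by Cell Tracker Red CMTPX staining in the red channel.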 Conditions: BODIPY lipid droplet fluorescence, 18-24 h; for cell number change: measured here: cell count max response, cells fed with added oleic acid. Summed up: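 Drosophila S3 cells loaded with oleic acid (400 uM, as added) and compounds at several concentrations; lipid droplets imaged by 488-nm laser-scanning cytometry, 500–530 nm intensity and object ratio to cell channel. Percent activity normalized to 20 uM Triacsin C.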

The mark [1] stands for this setting: measured here: lipid fluorescence (Fed channel) AC50, cells fed with added oleic acid.
The mark [2] stands for this setting: measured here: cell number channel AC50, cells fed with added oleic acid.

Turning to `COC(=O)c1cc(CN2CCN(c3ccccc3)CC2)ccc1O`, the cell number change was determined as 15%. Further, the AC50 under setting [1] was 29.1 µM [rising, single point].
In the case of `CC(C)Oc1cccc(C(=O)C2CCCN(C(=O)CCn3cnnn3)C2)c1` (stereo not given), the cell number change was determined as 14.4%.
With `O=C(NCCCN1CCOCC1)c1ccc(Cl)s1`, the cell number change is -19.5%. Moreover, the AC50 under setting [2] is 0.0517 µM [falling, full curve, poor fit]. Under setting [1], the AC50 was 0.146 µM [falling, full curve, poor fit].
For the compound `CC1CC(C)(C)N(C(=O)CN2C(=O)CCC2=O)c2ccccc21` (stereo not given), the cell number change was found to be 34.9%. Besides, the AC50 under setting [2] is 10.3 µM [rising, single point].
Take `COc1ccc(C2=NOC(C(=O)Nc3cc(Br)ccc3O)C2)cc1OC` (stereo not given): the cell number change is -60.7%. Further, the AC50 under setting [2] is 25.9 µM [falling, partial curve]. Besides, the half-maximal activity concentration (AC50) under setting [1] is 0.0082 µM [falling, full curve, poor fit].
Turning to `CCc1noc(C)c1C(=O)N1CCCC1`, the cell number change is -20.2%. Further, under setting [1], the concentration at half-maximal activity (AC50) is 1.3 µM [falling, full curve].
For the compound `Cc1ccc(S(=O)(=O)Oc2ccc3ccc(O)cc3c2)cc1`, the cell number change is -2.64%.
For the compound `COc1ccccc1NC(=O)Nc1nn(C)c2cccc(N(C)C)c12`, the cell number change was -0.725%. For the same compound, the AC50 under setting [1] is 2.91 µM [rising, single point].
On to `C/C(CC(=O)Nc1ccc(N(C)C)cc1)=N\NC(=O)c1ccc(Cl)cc1Cl`, for which the cell number change is 19.3%. Besides, the concentration at half-maximal activity (AC50) under setting [1] is 0.58 µM [falling, single point].
For the compound `Cc1ccc(S(=O)(=O)NC(C)(C)CN2CCCCC2)cc1`, the cell number change is 10.6%. For the same compound, the AC50 under setting [1] is 4.11 µM [rising, single point].
For `O=C(CSc1nc2cc(Cl)ccc2o1)N1CCOCC1`, the cell number change was -66.8%. Also, the AC50 under setting [2] is 25.9 µM [falling, partial curve, poor fit]. In addition, under setting [1], the AC50 was 23.1 µM [falling, partial curve].
Turning to `COc1ccc(CN2CCC(C(=O)NCCc3ccc(OC)c(OC)c3)CC2)c(OC)c1`, the cell number change was determined as 10.7%.
For the compound `Cc1nonc1CC(=O)NC1CCCc2c1cnn2-c1ccc(F)cc1F` (stereo not given), the cell number change was -37.1%. In addition, the AC50 under setting [2] is 29.1 µM [falling, single point]. Further, the AC50 under setting [1] was 0.13 µM [rising, full curve, poor fit].
As to `CC(=O)N1c2ccc(S(=O)(=O)N3CCC(C(=O)Nc4cccc(Cl)c4)CC3)cc2CC1C` (stereo not given), the cell number change was -39.9%. Moreover, the concentration at half-maximal activity (AC50) under setting [2] was 0.366 µM [falling, partial curve, poor fit]. In addition, under setting [1], the concentration at half-maximal activity (AC50) is 0.326 µM [falling, partial curve].
Regarding `CCOC(=O)/C=C/C(=O)OCC(=O)Nc1c(Cl)cccc1Cl`, the cell number change is -52.3%. Also, the concentration at half-maximal activity (AC50) under setting [2] is 4.61 µM [falling, full curve]. The AC50 under setting [1] is 5.8 µM [falling, full curve].
Consider `COc1ccc(CC(=O)OCC(=O)NC2CCCCC2)cc1`, for which the cell number change was 9.02%. Moreover, under setting [1], the concentration at half-maximal activity (AC50) is 6.51 µM [rising, single point].

By AC50 is commonly meant the concentration giving half of the maximal activity seen. A higher AC50 goes with weaker potency.
